Data from patent US9180214B1 (STC.UNM, priority 2011, dated 2015).

Key:
breast cancer = settings: cited from earlier work
[1] = general procedure: Fmoc solid-phase peptide synthesis; Rink amide resin; settings: whole synthesis, scale of the general procedure Severity micromoles of resin (so in the source), 210 μmol of each

Compound	sensitivity for small tumors <1 cm (breast cancer) [%]	sensitivity for tumors in-situ (breast cancer) [%]	final purity (method not given) [1]
OC[C@H]1O[C@@H](O)[C@H]([18F])[C@@H](O)[C@@H]1O [[^18F]FDG, 2-[^18F]fluoro-2-deoxy-D-glucose]	57	25	–
DOTA-Ahx-(D-Lys^6-GnRH1)	–	–	greater than 90% purity
